The other results are listed elsewhere or left out.
Compound: CC1Cc2ccccc2N1C(=O)C1CCCN(C1)C(=O)CCl (mixture of isomers) [TRIM25 ligand 11 (diastereomer mixture)]
Test: probe-labelled cysteine peptide fold change vs DMSO (competition) (log2 fold change); higher = less target engagement (more negative = stronger competition)
Details: THP-1, incubation time: 4 h
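Note: competitive chemoproteomic profiling in live THP-1 cells with an iodoacetamide desthiobiotin (IA-DTB) probe, comparing probe-labelled peptide intensities in compound-treated cells against DMSO-treated controls.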

Target	probe-labelled cysteine peptide fold change (10 µM)	probe-labelled cysteine peptide fold change (50 µM)
HDDC3_Q8N4P3_133_CTPEGWSEHR (UniProt Q8N4P3)	0.0778	-0.158
HCFC1_P51610_1139_RACAAGTPAVIR (UniProt P51610)	0.00185	-0.15
HK1_P19367_834_RAAQLCGAGMAAVVDK (UniProt P19367)	-0.0979	0.0581
HDAC1_Q13547_12_KVCYYYDGDVGNYYYGQGHPMK (UniProt Q13547)	-0.184	-0.0664
HEXB_P07686_360_CWESNPK (UniProt P07686)	-0.0387	0.0207
HERPUD1_Q15011_68_LLLDHQCLR (UniProt Q15011)	0.113	0.348
HENMT1_Q5T8I9_56_KVADLGCGDTSLLR (UniProt Q5T8I9)	-0.078	-0.0957
HAUS7_Q99871_119_LGHELMLCAPDDQELLK (UniProt Q99871)	0.257	0.164
HEATR5B_Q9P2D3_1137_TDIHCR (UniProt Q9P2D3)	-0.0367	-0.217
HEATR1_Q9H583_303_DGLSCLIVLLQR (UniProt Q9H583)	-0.198	0.192
HINT3_Q9NQE9_66+73_QDPGTELLHCENEDLICFK (UniProt Q9NQE9)	-0.0938	-0.404
HDAC2_Q92769_13_VCYYYDGDIGNYYYGQGHPMKPHR (UniProt Q92769)	-0.245	-0.308
HAUS7_Q99871_50_DLNCPFLEGLYITEPK (UniProt Q99871)	0.142	0.0811
HK1_P19367_158_LPVGFTFSFPCQQSK (UniProt P19367)	-0.0245	-0.0167
HDHD5_Q9BXW7_392_DLCFSPGLMEASHVVNDVNEAVQLVFRK (UniProt Q9BXW7)	-0.375	-0.495
HDLBP_Q00341_948_RCDIIIISGR (UniProt Q00341)	-0.0356	0.00275
HDHD3_Q9BSH5_109_DFSHPCTWQVLDGAEDTLR (UniProt Q9BSH5)	0.124	-0.0467
HINT1_P49773_38_CLAFHDISPQAPTHFLVIPK (UniProt P49773)	0.0503	-0.0538
HDLBP_Q00341_683_SIMEECGGVHIHFPVEGSGSDTVVIRGPSSDVEK (UniProt Q00341)	-0.0718	-0.059
HLA-A_P01891_363_GGSYSQAASSDSAQGSDVSLTACK (UniProt P01891)	0.214	-0.0167
HDAC5_Q9UQL6_982_CFGHLTR (UniProt Q9UQL6)	-0.000832	0.141
